Laboratory results as given in the supplement of paper PMC10849652.
Some of the results follow.

By UniProt entry, the sequences of proteins in these tests, tags left out. Where a name states a change or a piece, a line headed by the entry shows the natural chain unless it says otherwise.
UniProt P18615, whole entry, looked up: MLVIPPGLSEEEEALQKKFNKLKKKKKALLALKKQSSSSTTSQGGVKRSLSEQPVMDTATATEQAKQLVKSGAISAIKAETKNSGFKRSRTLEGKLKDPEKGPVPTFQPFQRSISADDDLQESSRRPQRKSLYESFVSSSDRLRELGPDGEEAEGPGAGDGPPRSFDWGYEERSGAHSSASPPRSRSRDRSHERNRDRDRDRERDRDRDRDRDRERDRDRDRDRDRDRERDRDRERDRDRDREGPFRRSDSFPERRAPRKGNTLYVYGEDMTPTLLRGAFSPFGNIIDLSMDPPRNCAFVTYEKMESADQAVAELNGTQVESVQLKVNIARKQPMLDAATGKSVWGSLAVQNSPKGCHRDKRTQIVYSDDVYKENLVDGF
UniProt P19404, whole entry, looked up: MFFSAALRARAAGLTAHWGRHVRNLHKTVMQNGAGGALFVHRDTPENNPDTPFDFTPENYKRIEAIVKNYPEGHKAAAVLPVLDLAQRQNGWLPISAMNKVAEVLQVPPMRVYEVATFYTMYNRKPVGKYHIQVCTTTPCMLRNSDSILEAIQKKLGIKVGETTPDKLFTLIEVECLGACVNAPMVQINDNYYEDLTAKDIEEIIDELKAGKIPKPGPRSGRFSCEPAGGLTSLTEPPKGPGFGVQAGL
UniProt P48681: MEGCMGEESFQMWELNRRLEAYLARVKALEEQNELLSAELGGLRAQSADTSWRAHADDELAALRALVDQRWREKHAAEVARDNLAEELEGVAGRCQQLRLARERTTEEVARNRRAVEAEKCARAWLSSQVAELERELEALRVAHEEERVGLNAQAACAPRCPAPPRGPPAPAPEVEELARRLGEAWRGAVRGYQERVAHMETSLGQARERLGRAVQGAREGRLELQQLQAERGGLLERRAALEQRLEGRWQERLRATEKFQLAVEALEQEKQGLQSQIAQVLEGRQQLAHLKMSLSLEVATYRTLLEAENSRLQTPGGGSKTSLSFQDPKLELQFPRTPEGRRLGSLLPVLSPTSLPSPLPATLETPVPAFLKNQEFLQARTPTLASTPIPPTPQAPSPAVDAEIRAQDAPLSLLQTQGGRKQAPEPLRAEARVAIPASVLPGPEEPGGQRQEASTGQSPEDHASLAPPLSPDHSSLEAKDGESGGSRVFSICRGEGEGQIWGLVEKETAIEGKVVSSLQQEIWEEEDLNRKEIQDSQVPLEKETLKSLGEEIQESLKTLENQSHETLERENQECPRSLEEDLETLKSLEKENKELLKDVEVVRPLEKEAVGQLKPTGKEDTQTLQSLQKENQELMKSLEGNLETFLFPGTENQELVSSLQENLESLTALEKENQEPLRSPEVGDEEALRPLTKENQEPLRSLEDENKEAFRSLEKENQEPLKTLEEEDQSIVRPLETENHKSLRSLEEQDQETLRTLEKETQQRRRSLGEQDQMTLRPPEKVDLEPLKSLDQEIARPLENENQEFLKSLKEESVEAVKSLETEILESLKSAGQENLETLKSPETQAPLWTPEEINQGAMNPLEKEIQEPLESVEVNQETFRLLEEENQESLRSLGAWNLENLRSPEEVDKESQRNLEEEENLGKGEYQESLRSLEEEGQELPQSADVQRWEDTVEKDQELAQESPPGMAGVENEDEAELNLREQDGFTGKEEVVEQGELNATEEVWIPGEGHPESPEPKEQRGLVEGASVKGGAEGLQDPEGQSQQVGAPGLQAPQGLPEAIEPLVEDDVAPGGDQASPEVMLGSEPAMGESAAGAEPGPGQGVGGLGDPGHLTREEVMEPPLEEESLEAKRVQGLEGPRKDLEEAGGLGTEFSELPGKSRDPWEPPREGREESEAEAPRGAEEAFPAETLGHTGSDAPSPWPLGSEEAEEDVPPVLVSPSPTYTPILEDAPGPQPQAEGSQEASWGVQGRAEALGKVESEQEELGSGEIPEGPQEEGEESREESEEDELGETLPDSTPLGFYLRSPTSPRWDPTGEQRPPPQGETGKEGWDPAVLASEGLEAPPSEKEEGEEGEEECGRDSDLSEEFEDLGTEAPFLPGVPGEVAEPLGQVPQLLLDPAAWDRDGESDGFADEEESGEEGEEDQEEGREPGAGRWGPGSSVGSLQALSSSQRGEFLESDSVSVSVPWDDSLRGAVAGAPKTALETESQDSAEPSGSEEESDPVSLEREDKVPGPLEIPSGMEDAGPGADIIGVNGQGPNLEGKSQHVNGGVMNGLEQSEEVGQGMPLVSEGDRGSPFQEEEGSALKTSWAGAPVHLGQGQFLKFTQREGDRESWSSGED
UniProt Q16718, whole entry, looked up: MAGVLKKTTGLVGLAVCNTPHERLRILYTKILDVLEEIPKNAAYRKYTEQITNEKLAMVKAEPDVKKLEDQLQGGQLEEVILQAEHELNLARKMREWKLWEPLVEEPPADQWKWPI
UniProt Q9NVZ3: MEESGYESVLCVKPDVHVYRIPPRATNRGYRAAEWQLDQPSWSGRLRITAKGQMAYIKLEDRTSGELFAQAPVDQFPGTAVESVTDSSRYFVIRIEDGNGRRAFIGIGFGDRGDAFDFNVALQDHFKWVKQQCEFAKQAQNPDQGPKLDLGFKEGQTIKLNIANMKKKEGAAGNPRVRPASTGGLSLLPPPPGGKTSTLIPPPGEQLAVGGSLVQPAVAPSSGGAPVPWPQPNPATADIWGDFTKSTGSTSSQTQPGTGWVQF
UniProt Q9Y2I1: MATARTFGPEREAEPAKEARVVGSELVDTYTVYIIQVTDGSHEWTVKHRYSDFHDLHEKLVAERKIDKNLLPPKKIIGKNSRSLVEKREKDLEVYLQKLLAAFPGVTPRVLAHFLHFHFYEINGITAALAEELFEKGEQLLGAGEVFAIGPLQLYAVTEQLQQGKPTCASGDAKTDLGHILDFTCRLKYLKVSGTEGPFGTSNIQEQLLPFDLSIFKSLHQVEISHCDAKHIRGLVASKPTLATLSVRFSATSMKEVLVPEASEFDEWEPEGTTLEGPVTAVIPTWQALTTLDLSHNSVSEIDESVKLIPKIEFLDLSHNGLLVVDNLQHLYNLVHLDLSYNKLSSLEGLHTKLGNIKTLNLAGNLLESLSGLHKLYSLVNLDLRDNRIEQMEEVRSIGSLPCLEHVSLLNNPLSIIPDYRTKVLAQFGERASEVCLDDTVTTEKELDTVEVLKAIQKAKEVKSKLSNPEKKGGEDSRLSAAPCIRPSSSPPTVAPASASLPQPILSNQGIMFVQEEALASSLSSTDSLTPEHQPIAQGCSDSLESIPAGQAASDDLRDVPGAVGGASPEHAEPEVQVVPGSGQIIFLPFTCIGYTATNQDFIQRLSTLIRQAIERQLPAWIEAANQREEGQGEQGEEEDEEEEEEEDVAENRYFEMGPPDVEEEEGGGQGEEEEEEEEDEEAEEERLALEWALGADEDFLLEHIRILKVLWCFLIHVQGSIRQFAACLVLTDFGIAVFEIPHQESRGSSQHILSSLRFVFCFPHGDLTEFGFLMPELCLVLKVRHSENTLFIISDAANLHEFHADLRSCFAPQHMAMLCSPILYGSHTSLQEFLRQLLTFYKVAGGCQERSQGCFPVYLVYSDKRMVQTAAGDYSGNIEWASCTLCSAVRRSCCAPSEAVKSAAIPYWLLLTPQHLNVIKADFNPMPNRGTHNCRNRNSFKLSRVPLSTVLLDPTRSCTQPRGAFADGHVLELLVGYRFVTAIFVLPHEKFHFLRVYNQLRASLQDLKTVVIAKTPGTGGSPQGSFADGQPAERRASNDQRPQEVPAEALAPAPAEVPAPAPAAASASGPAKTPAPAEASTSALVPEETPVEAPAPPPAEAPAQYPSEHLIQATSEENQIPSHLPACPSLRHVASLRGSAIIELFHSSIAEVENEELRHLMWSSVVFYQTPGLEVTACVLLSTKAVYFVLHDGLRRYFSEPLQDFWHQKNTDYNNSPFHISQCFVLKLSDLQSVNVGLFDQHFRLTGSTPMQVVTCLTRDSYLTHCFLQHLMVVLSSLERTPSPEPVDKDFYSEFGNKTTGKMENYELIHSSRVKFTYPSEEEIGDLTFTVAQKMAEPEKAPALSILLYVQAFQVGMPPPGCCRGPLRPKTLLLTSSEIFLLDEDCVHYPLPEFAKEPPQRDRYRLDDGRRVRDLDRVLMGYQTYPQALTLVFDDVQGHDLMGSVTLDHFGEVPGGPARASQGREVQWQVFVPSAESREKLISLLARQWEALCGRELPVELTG
UniProt Q12857, whole entry, looked up: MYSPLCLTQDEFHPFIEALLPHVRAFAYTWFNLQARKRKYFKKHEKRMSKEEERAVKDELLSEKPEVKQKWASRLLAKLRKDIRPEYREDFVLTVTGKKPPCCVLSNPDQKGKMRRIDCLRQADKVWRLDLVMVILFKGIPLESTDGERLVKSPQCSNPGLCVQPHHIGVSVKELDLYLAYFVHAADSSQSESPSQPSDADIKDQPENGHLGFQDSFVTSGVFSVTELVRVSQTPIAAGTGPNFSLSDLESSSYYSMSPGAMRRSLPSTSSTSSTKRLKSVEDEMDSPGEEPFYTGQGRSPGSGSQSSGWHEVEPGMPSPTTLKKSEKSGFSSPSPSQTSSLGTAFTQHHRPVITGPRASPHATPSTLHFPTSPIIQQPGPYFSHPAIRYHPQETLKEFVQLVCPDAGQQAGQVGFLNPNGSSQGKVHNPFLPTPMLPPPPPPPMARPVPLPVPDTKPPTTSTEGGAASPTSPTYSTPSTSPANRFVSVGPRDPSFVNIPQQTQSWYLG
UniProt Q9NX14, whole entry, looked up: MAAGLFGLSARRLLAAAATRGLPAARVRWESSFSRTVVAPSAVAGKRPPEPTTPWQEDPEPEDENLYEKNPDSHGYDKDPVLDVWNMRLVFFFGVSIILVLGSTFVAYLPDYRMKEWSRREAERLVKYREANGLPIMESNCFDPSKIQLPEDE
UniProt O14777: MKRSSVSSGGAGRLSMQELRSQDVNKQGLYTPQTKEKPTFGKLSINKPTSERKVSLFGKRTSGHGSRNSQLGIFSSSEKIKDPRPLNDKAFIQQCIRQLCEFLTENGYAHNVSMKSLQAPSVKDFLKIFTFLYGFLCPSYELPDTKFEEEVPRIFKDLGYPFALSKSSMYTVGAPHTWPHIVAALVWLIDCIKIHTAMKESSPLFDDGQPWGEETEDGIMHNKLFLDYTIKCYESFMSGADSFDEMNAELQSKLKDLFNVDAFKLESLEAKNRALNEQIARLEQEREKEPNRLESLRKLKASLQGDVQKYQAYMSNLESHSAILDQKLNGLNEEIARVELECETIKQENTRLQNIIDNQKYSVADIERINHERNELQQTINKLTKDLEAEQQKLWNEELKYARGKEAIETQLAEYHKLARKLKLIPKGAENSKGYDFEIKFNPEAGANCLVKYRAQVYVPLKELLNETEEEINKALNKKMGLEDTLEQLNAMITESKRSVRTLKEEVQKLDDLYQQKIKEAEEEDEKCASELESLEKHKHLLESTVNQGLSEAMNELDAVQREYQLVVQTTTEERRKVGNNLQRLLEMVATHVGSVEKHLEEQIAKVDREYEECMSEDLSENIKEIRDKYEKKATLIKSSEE
UniProt O60524: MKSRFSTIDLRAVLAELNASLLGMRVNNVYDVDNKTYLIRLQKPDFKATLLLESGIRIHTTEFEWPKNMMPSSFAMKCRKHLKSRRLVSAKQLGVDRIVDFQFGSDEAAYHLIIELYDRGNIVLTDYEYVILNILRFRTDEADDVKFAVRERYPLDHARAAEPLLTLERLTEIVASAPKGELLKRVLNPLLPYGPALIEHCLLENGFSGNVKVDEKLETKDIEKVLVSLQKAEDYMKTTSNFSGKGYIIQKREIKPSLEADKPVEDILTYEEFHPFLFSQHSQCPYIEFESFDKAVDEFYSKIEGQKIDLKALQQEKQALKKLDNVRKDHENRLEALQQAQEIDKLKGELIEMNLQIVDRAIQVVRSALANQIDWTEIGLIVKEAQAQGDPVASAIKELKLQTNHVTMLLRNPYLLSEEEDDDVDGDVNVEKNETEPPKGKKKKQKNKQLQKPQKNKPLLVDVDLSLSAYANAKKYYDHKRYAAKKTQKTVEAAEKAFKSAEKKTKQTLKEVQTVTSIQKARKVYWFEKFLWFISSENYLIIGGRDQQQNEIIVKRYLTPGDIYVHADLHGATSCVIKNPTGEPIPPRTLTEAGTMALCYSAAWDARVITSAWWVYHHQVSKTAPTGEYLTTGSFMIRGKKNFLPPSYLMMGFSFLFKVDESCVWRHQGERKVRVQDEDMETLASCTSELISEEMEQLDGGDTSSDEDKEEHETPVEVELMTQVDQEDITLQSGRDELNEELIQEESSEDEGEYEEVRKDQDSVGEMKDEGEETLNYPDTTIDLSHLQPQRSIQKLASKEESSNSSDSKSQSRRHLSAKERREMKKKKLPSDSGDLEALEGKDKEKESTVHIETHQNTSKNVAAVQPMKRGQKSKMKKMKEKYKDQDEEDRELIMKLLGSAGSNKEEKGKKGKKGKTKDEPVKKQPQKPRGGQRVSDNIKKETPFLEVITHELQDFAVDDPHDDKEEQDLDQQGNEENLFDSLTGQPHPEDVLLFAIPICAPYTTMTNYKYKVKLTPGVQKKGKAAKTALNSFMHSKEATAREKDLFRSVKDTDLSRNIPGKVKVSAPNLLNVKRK

Legend:
Assay in all cases: log2 fold change, soluble protein after heating vs DMSO (PISA); higher = thermal stabilisation; K562 lysate, 10 uM; active = over 0.2 and 3.5 SD of the protein, either way, in both replicates (recomputed)
[1] = compound: C1=CC=C(C=C1)[C@H](COC2=CC3=C(C=C2)NC(=O)N3)NC(=O)C4=CC=CN(C4=O)CC5=CC(=C(C=C5)F)F
How it was run: (§1)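 Quantification was by TMTpro 16plex LC-MS/MS with equalised channel sums, applied to the supernatant after 21,000xg for 90 min. Samples were crude K562 extract at 1 mg/mL protein in PBS pH 7.4 with 1 mM MgCl2, treated with 10 μM compound for 30 min, heated for 3 min across 48°C-58°C, pooled and brought to 0.5% NP-40 at 4°C. Values are log-two fold changes in thermal stability relative to solvent controls, from duplicates.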

[2] = compound: CC1=C(SC2=C1C(=N[C@H](C3=NN=C(N32)C)CC(=O)N)C4=CC=C(C=C4)Cl)C
How it was run: as §1

[3] = compound: CC1=C2C(=CC=C1)N=C(N(C2=O)C3=CC=CC=C3C)CN4C=NC5=C(N=CN=C54)N
How it was run: as §1

[4] = compound: Cc1sc2c(c1C)C(c1ccc(Cl)cc1)=N[C@@H](CC(=O)OC(C)(C)C)c1nnc(C)n1-2
How it was run: as §1

[5] = compound: c1ccc([C@@H]2C[C@H]2NC2CCNCC2)cc1
How it was run: as §1

Measured: log2 fold change

NELFE (UniProt P18615)
inactive: [1] 0.009 | [2] -0.006 | [3] 0.03 | [4] 0.009 | [5] -0.037

NDUFV2 (UniProt P19404)
inactive: [1] -0.03 | [2] -0.053 | [3] -0.014 | [4] -0.009 | [5] -0.019

NFYB (UniProt P25208)
inactive: [1] 0.062 | [2] -0.053 | [3] 0.067 | [4] -0.073 | [5] -0.037

NEU1 (UniProt Q99519)
inactive: [1] 0.022 | [2] -0.016 | [3] 0.129 | [4] 0.059 | [5] 0.073

NFU1 (UniProt Q9UMS0)
inactive: [1] -0.163 | [2] -0.053 | [3] -0.004 | [4] 0.033 | [5] 0.04

NELFB isoform 2 (UniProt Q8WX92)
inactive: [1] -0.022 | [2] -0.018 | [3] 0.022 | [4] 0.014 | [5] 0.018

NES (UniProt P48681)
inactive: [1] 0.05 | [2] 0.04 | [3] -0.002 | [4] -0.021 | [5] 0.03

NLRP2 (UniProt Q9NX02)
inactive: [1] -0.01 | [2] -0.027 | [3] -0.015 | [4] 0.03 | [5] 0.093

NLN (UniProt Q9BYT8)
inactive: [1] 0.003 | [2] 0.002 | [3] 0.018 | [4] -0.011 | [5] 0.067

NDUFA5 (UniProt Q16718)
inactive: [1] -0.044 | [2] -0.07 | [3] 0.02 | [4] 0.065 | [5] 0.032

NECAP2 (UniProt Q9NVZ3)
inactive: [1] 0.071 | [2] -0.013 | [3] -0.012 | [4] -0.003 | [5] 0.03

NISCH (UniProt Q9Y2I1)
inactive: [1] -0.011 | [2] 0.024 | [3] 0.003 | [4] 0.017 | [5] 0.083

NDUFAB1 (UniProt O14561)
inactive: [1] 0.063 | [2] -0.052 | [3] -0.108 | [4] 0.007 | [5] -0.033

NECTIN2 (UniProt Q92692)
inactive: [1] -0.004 | [2] -0.013 | [3] 0.013 | [4] -0.003 | [5] -0.013

NFKBIE (UniProt O00221)
inactive: [1] -0.014 | [2] -0.068 | [3] 0.033 | [4] 0.081 | [5] -0.087

Pulled one by one from the list above, two records:
NISCH (UniProt Q9Y2I1)
inactive: [1] -0.011 | [2] 0.024 | [3] 0.003 | [4] 0.017 | [5] 0.083

NECAP2 (UniProt Q9NVZ3)
inactive: [1] 0.071 | [2] -0.013 | [3] -0.012 | [4] -0.003 | [5] 0.03

(continued)

NKIRAS2 (UniProt Q9NYR9)
inactive: [1] -0.065 | [2] 0.116 | [3] -0.054 | [4] 0.045 | [5] -0.023

NEB isoform 3 (UniProt P20929)
inactive: [1] 0.128 | [2] -0.043 | [3] 0.127 | [4] 0.046 | [5] -0.214

NFE2 (UniProt Q16621)
inactive: [1] -0.042 | [2] 0.021 | [3] 0.004 | [4] -0.028 | [5] -0.011

NDUFV3 isoform 2 (UniProt P56181)
inactive: [1] 0.036 | [2] -0.018 | [3] 0.026 | [4] -0.056 | [5] -0.045

NIPA2 (UniProt Q8N8Q9)
inactive: [1] -0.001 | [2] -0.056 | [3] -0.002 | [4] -0.047 | [5] -0.159

NFIA isoform 4 (UniProt Q12857)
inactive: [1] 0 | [2] 0.07 | [3] -0.004 | [4] -0.008 | [5] -0.041

NDUFB11 isoform 2 (UniProt Q9NX14)
inactive: [1] -0.083 | [2] 0.006 | [3] 0.021 | [4] 0.018 | [5] -0.016

NDC80 (UniProt O14777)
inactive: [1] -0.042 | [2] -0.027 | [3] -0.004 | [4] -0.007 | [5] 0.015

NEMF (UniProt O60524)
inactive: [1] 0.036 | [2] 0.013 | [3] -0.024 | [4] -0.014 | [5] 0.04
